Experimental data reported in paper doi:10.1101/2020.07.13.200089.
Where two headings read alike, the source gives them in different places. Results are given in words; binding and its absence hold for the method and conditions named. In cells and extracts the contact can be indirect. Some binding calls cover weakened binding; strength is not graded here. For part of these data: Where a sequence is shown, tags or fusion partners need not be part of it.

By UniProt entry, the sequences of proteins in these tests, tags left out. Residues count along the entry.
UniProt P60953: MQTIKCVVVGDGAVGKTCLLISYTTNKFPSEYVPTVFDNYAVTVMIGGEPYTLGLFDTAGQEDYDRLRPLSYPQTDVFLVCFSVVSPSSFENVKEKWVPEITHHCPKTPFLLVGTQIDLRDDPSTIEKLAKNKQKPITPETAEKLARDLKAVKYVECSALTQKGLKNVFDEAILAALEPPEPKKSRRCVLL
UniProt Q13153, residues 69-109: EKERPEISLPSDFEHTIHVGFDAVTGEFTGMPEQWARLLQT
UniProt Q96KP1, residues 5-97: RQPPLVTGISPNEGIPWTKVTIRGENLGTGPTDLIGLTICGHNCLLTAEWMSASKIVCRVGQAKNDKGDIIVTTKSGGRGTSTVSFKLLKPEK

Experiments:
Experiment in all cases: split reporter
[1] = target: ddRFPA-fused Cdc42 (RA-Cdc42) (UniProt P60953)
[2] = target: T1, ddRFPA-fused RalB (RA-RalB) (UniProt P11234)
T1 sequence: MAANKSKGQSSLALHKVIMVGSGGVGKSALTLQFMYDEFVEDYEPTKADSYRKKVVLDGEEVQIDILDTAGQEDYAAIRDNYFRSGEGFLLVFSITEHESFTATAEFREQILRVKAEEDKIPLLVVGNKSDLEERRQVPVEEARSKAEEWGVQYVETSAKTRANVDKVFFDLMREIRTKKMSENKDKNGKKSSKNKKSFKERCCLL

[3] = target: T1, ddRFPA-fused RalB (RA-RalB); remark: listed apart in the source

| binding [1] | binding [2] | binding [3] | Substance |
| --- | --- | --- | --- |
| binds |  |  | ddRFPB-fused RBD of PAK1 (B3-RBD_(PAK1)) (from UniProt Q13153 69-109) (domain or fragment) |
|  | binds | binds | ddRFPB-fused RBD of Sec5 (B3-RBD_(Sec5)) (from UniProt Q96KP1 5-97) (domain or fragment) |
